In US20120052075A1:
These are yes or no findings as the source states them, for the method shown. For part of these data: Binding seen in cells or lysates may run through a third protein. Some entries that bind do so weakly or less than the wild type.

Protein sequences, listed by entry. Tags and fused reporters are not part of them. Lines headed by an entry give the natural chain unless they say otherwise; changes in a name come on top.
UniProt Q96PQ0: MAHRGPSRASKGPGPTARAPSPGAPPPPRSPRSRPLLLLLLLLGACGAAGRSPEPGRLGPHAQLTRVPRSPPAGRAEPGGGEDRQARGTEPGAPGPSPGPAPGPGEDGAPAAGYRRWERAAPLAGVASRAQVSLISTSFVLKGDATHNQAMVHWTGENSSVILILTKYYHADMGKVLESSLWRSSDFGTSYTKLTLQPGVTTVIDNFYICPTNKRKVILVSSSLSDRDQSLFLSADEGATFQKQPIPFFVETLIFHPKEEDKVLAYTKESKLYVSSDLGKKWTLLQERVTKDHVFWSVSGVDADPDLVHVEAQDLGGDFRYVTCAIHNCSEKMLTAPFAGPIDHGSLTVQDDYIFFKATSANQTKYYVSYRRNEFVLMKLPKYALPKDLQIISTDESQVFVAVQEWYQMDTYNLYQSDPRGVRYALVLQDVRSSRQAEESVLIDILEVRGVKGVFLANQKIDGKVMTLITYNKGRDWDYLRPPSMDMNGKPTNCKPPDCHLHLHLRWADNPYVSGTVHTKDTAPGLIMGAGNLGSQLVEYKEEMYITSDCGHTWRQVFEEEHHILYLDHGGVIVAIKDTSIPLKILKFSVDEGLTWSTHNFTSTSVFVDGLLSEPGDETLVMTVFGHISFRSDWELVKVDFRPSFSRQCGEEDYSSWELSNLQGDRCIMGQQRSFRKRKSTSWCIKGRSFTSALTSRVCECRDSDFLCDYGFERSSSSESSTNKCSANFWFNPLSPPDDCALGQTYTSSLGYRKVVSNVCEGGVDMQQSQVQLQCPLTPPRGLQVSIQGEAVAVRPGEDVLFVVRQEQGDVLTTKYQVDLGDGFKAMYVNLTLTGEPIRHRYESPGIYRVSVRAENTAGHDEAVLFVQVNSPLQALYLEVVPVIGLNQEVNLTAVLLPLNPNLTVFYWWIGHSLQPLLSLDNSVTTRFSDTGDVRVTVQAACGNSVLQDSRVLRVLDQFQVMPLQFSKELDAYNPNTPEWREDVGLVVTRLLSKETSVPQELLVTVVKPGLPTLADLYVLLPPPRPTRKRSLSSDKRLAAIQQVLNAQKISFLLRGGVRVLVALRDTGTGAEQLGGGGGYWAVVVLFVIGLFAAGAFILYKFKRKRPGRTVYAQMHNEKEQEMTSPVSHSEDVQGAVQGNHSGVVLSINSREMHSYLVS
UniProt Q99523: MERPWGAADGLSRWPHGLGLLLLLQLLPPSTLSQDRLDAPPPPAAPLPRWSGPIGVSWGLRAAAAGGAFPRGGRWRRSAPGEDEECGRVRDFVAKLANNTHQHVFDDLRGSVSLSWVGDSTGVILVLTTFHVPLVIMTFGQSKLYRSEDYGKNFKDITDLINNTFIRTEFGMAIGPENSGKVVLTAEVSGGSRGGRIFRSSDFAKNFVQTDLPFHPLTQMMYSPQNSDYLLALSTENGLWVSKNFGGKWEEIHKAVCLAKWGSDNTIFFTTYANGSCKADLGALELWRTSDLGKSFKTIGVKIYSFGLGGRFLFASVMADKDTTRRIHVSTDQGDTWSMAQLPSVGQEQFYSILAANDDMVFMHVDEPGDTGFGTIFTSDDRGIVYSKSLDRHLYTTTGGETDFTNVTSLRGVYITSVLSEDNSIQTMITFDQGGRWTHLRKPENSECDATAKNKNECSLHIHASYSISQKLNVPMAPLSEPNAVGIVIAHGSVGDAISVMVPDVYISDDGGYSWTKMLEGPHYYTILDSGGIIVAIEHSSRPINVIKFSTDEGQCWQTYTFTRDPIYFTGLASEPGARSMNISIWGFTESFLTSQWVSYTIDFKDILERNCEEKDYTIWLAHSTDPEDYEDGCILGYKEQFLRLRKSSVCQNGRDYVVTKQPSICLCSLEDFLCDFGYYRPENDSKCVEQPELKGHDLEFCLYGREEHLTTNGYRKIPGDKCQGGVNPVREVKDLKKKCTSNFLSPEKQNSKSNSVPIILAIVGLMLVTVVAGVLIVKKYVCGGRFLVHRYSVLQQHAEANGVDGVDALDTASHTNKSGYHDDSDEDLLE
UniProt P08138: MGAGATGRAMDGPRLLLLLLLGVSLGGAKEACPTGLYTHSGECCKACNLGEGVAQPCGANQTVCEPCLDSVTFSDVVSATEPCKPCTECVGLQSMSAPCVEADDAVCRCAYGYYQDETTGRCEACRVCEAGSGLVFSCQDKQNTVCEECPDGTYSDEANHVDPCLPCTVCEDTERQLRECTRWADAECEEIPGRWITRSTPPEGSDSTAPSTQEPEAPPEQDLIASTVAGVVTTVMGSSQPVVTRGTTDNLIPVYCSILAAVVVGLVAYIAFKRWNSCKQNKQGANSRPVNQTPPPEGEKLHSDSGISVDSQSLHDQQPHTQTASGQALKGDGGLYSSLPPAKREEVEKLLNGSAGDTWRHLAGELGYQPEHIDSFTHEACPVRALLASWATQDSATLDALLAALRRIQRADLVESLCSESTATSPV
UniProt Q16620: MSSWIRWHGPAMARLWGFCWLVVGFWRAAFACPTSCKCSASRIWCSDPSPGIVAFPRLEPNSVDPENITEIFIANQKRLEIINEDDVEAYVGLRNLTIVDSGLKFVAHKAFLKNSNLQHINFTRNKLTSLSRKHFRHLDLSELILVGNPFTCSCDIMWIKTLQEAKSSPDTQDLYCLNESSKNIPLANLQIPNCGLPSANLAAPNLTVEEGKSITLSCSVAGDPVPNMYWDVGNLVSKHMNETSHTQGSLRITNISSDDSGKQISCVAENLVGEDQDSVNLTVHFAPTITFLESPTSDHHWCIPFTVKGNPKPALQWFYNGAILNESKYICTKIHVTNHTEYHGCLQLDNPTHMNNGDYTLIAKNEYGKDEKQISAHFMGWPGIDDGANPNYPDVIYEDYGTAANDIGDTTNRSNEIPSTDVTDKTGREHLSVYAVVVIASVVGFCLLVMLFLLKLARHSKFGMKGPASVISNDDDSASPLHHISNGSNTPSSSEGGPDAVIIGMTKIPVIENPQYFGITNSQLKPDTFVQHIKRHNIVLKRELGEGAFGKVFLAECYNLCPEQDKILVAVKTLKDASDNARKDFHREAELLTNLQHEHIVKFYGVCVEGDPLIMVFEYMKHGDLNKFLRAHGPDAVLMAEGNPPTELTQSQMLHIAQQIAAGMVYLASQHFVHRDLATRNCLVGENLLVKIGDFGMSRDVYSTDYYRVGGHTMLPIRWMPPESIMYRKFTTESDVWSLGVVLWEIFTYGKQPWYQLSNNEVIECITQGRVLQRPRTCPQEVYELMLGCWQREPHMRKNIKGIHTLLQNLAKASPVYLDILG

What was measured:
[1] = target: SorCS2 expressed in stably transfected HEK293 cells (Homo sapiens in the sequence list; not stated for the assay) (UniProt Q96PQ0); assay: co-immunoprecipitation from DSP-crosslinked, stably transfected HEK293 cells with anti-SorCS2 antibody on Gammabind beads, Western blot for p75
[2] = target: SorCS2 expressed in stably transfected HEK293 cells (Homo sapiens in the sequence list; not stated for the assay) (UniProt Q96PQ0); assay: co-immunoprecipitation with anti-SorCS2 antibody from DSP-crosslinked HEK293 cells, Western blot
[3] = target: soluble SorCS2 (extracellular domain of SorCS2), immobilized on the Biacore chip (Homo sapiens in the sequence list; not stated for the assay) (UniProt Q96PQ0); assay: co-immunoprecipitation and SPR, as in FIG. 6
[4] = target: soluble SorCS2 (extracellular domain of SorCS2), immobilized on the Biacore chip (Homo sapiens in the sequence list; not stated for the assay) (UniProt Q96PQ0); assay: SPR (Biacore), CM5 chip coated with SorCS2
[5] = target: soluble SorCS2 (extracellular domain of SorCS2), immobilized on the Biacore chip (Homo sapiens in the sequence list; not stated for the assay) (UniProt Q96PQ0); assay: SPR (BIAcore), soluble SorCS2 immobilized on a CM5 chip, p75 ECD at 1 uM in solution
[6] = target: soluble Sortilin, immobilized on the Biacore chip (Homo sapiens in the sequence list; not stated for the assay) (UniProt Q99523); assay: SPR (BIAcore), soluble Sortilin immobilized on the chip, TrkB-Fc chimera at 500, 100 and 50 nM in solution
[7] = target: soluble SorCS2 (extracellular domain of SorCS2), immobilized on the Biacore chip (Homo sapiens in the sequence list; not stated for the assay) (UniProt Q96PQ0); assay: SPR (BIAcore), soluble SorCS2 immobilized on a CM5 chip, TrkB-Fc chimera at 500, 100 and 50 nM in solution
[8] = target: T1, soluble SorCS1, immobilized on the Biacore chip (Homo sapiens in the sequence list; not stated for the assay) (UniProt Q8WY21); assay: SPR (BIAcore)
T1 sequence: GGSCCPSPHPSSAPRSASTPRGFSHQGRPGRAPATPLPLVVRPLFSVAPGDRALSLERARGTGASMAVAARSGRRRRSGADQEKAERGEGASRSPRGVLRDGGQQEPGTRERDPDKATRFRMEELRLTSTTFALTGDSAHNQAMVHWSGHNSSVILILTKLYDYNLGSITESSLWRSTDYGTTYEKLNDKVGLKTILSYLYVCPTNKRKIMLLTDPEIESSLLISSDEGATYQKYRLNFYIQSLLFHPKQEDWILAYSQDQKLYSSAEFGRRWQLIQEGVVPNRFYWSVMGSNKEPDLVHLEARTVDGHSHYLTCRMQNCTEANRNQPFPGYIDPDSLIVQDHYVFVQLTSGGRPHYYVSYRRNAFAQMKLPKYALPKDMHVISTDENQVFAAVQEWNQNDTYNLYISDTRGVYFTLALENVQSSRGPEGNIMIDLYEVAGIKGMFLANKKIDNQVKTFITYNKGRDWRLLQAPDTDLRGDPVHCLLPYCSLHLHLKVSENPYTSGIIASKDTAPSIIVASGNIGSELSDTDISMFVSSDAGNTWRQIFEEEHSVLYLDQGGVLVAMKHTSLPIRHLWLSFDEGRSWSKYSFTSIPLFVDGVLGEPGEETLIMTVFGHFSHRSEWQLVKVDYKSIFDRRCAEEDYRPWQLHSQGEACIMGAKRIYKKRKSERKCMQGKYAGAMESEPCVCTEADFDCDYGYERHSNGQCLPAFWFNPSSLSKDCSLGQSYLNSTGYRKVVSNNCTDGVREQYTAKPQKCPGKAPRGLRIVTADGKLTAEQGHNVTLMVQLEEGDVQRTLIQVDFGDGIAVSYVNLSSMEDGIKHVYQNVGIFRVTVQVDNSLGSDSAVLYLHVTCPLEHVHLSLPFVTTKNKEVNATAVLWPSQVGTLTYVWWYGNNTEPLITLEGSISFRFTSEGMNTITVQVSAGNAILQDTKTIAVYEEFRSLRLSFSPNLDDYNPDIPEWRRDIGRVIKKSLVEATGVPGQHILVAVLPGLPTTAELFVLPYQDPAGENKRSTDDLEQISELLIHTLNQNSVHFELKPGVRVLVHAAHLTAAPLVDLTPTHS

[9] = target: soluble SorCS2 (extracellular domain of SorCS2), immobilized on the Biacore chip (Homo sapiens in the sequence list; not stated for the assay) (UniProt Q96PQ0); assay: SPR (BIAcore)
[10] = target: soluble Sortilin, immobilized on the Biacore chip (Homo sapiens in the sequence list; not stated for the assay) (UniProt Q99523); assay: SPR (BIAcore)
[11] = target: T1, soluble SorCS1, immobilized on the Biacore chip (Homo sapiens in the sequence list; not stated for the assay); assay: SPR (BIAcore), soluble SorCS1 immobilized on the chip, TrkB-Fc chimera at 500, 100 and 50 nM in solution

Measured: binding

p75^NTR expressed in stably transfected HEK293 cells (from UniProt P08138 29-427) (receptor)
binds: [1] | [2]

soluble full-length extracellular domain of p75^NTR (from UniProt P08138 29-250) (receptor)
binds: [3] | [4] | [5]

TrkB-Fc chimera (R&D Systems) (from UniProt Q16620 32-430) (Fc fusion)
binds: [6] | [7] | [8] | [9] | [10] | [4] | [11]
